Results are given in words; binding and its absence hold for the method and conditions named. Binding seen in cells or lysates may run through a third protein. Here binding means that the protein was enriched with, or labelled near, the bait; the list need not be complete.
B1: catalytic subunit of PPP6 (PPP6C) (enzyme, UniProt O00743 1-305)
chain: MAPLDLDKYVEIARLCKYLPENDLKRLCDYVCDLLLEESNVQPVSTPVTVCGDIHGQFYDLCELFRTGGQVPDTNYIFMGDFVDRGYYSLETFTYLLALKAKWPDRITLLRGNHESRQITQVYGFYDECQTKYGNANAWRYCTKVFDMLTVAALIDEQILCVHGGLSPDIKTLDQIRTIERNQEIPHKGAFCDLVWSDPEDVDTWAISPRGAGWLFGAKVTNEFVHINNLKLICRAHQLVHEGYKFMFDEKLVTVWSAPNYCYRCGNIASIMVFKDVNTREPKLFRAVPDSERVIPPRTTTPYFL

Protein sequences, listed by entry. Tags and fused reporters are not part of them.
UniProt Q96KQ7: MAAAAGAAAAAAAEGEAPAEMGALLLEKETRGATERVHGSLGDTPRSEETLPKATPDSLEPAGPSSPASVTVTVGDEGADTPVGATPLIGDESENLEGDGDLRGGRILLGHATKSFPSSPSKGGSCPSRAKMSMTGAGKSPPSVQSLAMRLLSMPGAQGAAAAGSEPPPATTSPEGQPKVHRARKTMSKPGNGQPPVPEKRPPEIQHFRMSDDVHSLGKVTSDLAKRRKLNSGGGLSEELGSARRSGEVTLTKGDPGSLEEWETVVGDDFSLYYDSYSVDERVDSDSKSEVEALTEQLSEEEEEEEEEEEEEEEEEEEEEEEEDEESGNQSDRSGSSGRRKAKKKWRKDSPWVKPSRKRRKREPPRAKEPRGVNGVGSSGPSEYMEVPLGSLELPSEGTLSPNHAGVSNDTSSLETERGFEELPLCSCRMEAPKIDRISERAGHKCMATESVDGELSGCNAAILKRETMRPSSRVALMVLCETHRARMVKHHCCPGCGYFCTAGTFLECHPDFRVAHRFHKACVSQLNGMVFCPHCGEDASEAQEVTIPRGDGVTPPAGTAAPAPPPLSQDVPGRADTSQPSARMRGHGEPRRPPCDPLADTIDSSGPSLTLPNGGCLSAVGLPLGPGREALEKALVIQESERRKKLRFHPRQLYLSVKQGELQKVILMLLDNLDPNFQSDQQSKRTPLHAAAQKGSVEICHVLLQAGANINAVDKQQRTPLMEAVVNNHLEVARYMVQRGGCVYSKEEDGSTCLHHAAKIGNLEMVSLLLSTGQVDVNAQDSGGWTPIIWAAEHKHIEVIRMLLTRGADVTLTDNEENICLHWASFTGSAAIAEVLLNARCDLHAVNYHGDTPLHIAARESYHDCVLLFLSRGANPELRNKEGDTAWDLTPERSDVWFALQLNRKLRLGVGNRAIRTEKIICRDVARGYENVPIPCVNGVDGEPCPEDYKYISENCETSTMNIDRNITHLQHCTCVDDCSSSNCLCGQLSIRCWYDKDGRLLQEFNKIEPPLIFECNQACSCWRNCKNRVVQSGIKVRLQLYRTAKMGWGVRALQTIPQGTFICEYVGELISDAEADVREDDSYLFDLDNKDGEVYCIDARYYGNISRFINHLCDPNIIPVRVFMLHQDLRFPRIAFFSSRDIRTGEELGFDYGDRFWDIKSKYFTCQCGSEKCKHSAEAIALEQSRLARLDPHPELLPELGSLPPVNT
UniProt P63151: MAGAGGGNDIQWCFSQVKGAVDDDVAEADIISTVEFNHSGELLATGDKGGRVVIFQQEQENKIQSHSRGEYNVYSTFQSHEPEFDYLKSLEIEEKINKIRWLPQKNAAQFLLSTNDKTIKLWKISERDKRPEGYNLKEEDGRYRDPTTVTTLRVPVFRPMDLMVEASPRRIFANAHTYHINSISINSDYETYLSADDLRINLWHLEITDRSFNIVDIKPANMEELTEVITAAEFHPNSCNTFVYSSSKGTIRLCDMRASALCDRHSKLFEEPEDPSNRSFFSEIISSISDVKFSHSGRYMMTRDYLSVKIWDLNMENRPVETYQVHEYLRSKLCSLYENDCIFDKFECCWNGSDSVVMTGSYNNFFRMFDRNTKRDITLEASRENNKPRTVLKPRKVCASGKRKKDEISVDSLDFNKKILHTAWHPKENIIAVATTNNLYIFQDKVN
UniProt P62714: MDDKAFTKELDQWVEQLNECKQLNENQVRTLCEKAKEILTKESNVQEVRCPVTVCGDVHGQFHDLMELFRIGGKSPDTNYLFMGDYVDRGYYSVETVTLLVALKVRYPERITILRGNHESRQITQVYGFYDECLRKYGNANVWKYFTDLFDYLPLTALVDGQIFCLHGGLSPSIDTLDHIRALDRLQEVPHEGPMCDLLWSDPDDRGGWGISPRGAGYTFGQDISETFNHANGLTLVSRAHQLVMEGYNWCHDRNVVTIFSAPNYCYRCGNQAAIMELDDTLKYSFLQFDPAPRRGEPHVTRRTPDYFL
UniProt P36873: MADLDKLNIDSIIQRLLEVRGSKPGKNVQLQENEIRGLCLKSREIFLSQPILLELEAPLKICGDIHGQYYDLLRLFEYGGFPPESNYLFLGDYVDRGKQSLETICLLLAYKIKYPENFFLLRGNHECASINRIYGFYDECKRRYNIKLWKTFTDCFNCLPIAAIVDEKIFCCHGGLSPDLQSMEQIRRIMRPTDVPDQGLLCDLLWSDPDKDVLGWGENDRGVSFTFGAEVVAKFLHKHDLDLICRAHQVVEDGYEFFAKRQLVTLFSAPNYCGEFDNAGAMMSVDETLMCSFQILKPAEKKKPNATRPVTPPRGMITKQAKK

What follows are molecules tested against Flag‐BirA‐G9a (human G9a fused to the biotin ligase BirA) (human) (UniProt Q96KQ7) (assay: proximity labelling; Flag‐BirA‐hG9a in HEK293T cells with or without biotin (100 µM, 16 h) and 18 h nocodazole; lysis in IP buffer (25 mM Tris‐HCl pH 7.4, 150 mM NaCl, 5% glycerol, 1 mM EDTA, 1% NP‐40); streptavidin resin overnight at 4 °C, washed with 500 mM NaCl IP buffer; whole gel lane analysed by mass spectrometry).

binding | Molecule
binds | B55alpha regulatory subunit of PPP2 (PPP2R2A) (from UniProt P63151 1-447)
binds | alpha isoform of the catalytic subunit of PPP3 (PPP3CA) (from UniProt Q08209 1-521) (enzyme)
binds | beta‐isoform of the catalytic subunit of PPP2 (PPP2CB) (from UniProt P62714 1-309) (enzyme)
binds | gamma isoform of the catalytic subunit of PPP1 (PPP1CC) (from UniProt P36873 1-323) (enzyme)
binds | B1

Source: publication PMC10602519
